# The other results are listed elsewhere or left out.
# Sequences of proteins named here, by UniProt entry; tags and fusion partners are left off.
# UniProt Q0JBA9, entry or part of it: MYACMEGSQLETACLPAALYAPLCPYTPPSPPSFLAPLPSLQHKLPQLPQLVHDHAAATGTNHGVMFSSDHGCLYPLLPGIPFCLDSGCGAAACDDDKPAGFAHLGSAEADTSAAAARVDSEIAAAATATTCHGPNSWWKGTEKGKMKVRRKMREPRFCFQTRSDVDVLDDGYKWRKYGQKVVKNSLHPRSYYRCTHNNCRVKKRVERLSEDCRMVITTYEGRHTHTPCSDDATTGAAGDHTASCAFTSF
# Target: OsWRKY34 (Oryza sativa, UniProt Q0JBA9 1-250)
# Assay: protein-binding microarray (RPBM); PBS, 2% BSA, 51.3 ng/ul salmon testes DNA, 50 uM zinc acetate, 200 nM TF, 25 C, 1 h; high values mean tight binding
# Settings: protein: recombinant; tags: N-terminal polyhistidine and DsRed monomer fusion (pET32a); label: CyDye5-dUTP incorporated in the synthesized complementary strand; 3' TTTTT single-stranded linker to array surface; dsDNA, one strand shown
# Procedure, shortened: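 Binding signal is defined as the fluorescence intensity of each feature in arbitrary units, read on an Axon 4000B scanner. Transcription factors with N-terminal polyhistidine and DsRed fusions came from E. coli BL21-CodonPlus and were purified on Ni–NTA. They were incubated at 200 nM for 1 h at 25 °C on a custom Agilent array that had been made double-stranded with Cy5-dUTP, with 50 µM zinc acetate present, and the array was washed.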
row,Sequence,binding signal
1,ATGGTCACCCTGATGTTTTCGATAGAATCTTTCACCTCACCGGAGTCACCTAGTGCAG,8070 fluorescence intensity (a.u.)
2,GCGTCAGTCGTCAGACCCGACGAGTGGTGGGGTGGGGAGTCGGAGTCACCTAGTGCAG,11800 fluorescence intensity (a.u.)
3,CGTCTCATCTCATCTCGTCTCGCCCCGCTGTAATCTCGTACGGAGTCACCTAGTGCAG,12200 fluorescence intensity (a.u.)
4,AACTTGGTCAAACTTAAAGCAGTTTGACTTCTTATAACTTCGGAGTCACCTAGTGCAG,15900 fluorescence intensity (a.u.)
5,CCTCCGCCTCCGCGCGCGCCAGCGGCCGCCGCCGCCTCCTCGGAGTCACCTAGTGCAG,8220 fluorescence intensity (a.u.)
6,AATTTTGGTTATTTGCTGGTGGACATTTATCCCATTAAAACGGAGTCACCTAGTGCAG,9370 fluorescence intensity (a.u.)
7,CATGAGCTAATAGCTCACCTCGTTTTGCGTATCTTCCCAACGGAGTCACCTAGTGCAG,8730 fluorescence intensity (a.u.)
8,GTGCAGTATGCATTAGCTCGTTTTTCTCGTCACACCTTTGCGGAGTCACCTAGTGCAG,10300 fluorescence intensity (a.u.)
9,AAGCTTTGACTTTTTTTTGTCAAATTTTTTAAGTTTGATTCGGAGTCACCTAGTGCAG,20400 fluorescence intensity (a.u.)
10,TGGTCTTGGTTTGGCTTTTTTGTTTTTTCTAGATGAACTTCGGAGTCACCTAGTGCAG,12600 fluorescence intensity (a.u.)
11,TGTACCATATATTTTTTAACTTTTTTCTTTTGTTTTTTATCGGAGTCACCTAGTGCAG,9640 fluorescence intensity (a.u.)
12,TGCCGGCCTTGGAGCGTTGTGCTGGACATGGACATGGACACGGAGTCACCTAGTGCAG,8880 fluorescence intensity (a.u.)
13,ACCATGTATGTCTCTAAGGTATTTTGGGTATTTTTTAAAACGGAGTCACCTAGTGCAG,8620 fluorescence intensity (a.u.)
14,GCTGTTCAGCTTCGGCCTCATCTTCGGCTTCGGCCACCTCCGGAGTCACCTAGTGCAG,8400 fluorescence intensity (a.u.)
15,CACGTACTAGCACTGTAGCGCACCCATGACTGTCTTTCTTCGGAGTCACCTAGTGCAG,9370 fluorescence intensity (a.u.)
16,CTCTCTCACTCTTCTCCCTCTTCTCACCACCAGACGCCATCGGAGTCACCTAGTGCAG,8850 fluorescence intensity (a.u.)
17,GATGTTAAGAAGACCATGAATGTTGCATTTTTACTCGTTGCGGAGTCACCTAGTGCAG,8200 fluorescence intensity (a.u.)
18,GAAGACTTGTGTTACGTTTCCATTTTAGTCTACCAGCTGCCGGAGTCACCTAGTGCAG,8650 fluorescence intensity (a.u.)
19,GGGGCGGCAGTGGATGGCGGTTGGGCGGCGGTGCGGGGAGCGGAGTCACCTAGTGCAG,12200 fluorescence intensity (a.u.)
20,CGTTGCATGGACTGTTCTTCTTGCCATCTTCATCTCCTACCGGAGTCACCTAGTGCAG,9750 fluorescence intensity (a.u.)
21,TATATATGTATCTCCTGTTGAATCCTGGTCTCTCACTCTCCGGAGTCACCTAGTGCAG,12800 fluorescence intensity (a.u.)

# Exported with bars between the fields: entries from further up.
row | Sequence | binding signal
15 | CACGTACTAGCACTGTAGCGCACCCATGACTGTCTTTCTTCGGAGTCACCTAGTGCAG | 9370 fluorescence intensity (a.u.)
16 | CTCTCTCACTCTTCTCCCTCTTCTCACCACCAGACGCCATCGGAGTCACCTAGTGCAG | 8850 fluorescence intensity (a.u.)
17 | GATGTTAAGAAGACCATGAATGTTGCATTTTTACTCGTTGCGGAGTCACCTAGTGCAG | 8200 fluorescence intensity (a.u.)

# Next part.

row,Sequence,binding signal
1,GCAGCAGGGAGGTGGGGCGCAGGAGGAAGAAGAAGAGGGACGGAGTCACCTAGTGCAG,13300 fluorescence intensity (a.u.)
2,ATCATAGCCGATTCTTTGCAAACTCAGTGAAGCTTCTTTCCGGAGTCACCTAGTGCAG,8650 fluorescence intensity (a.u.)
3,GTAGTTCGAGTTTAAATTTTTTTTGTGGTTGGTTGTATCGCGGAGTCACCTAGTGCAG,11100 fluorescence intensity (a.u.)
4,TTTCTGATCCGTTAGGCCCTGTTTAGTTCCCACGCAAAAACGGAGTCACCTAGTGCAG,8560 fluorescence intensity (a.u.)
5,AAGCTGCTATTTAACTTTGACCAAAGTCAAAACATTTTATCGGAGTCACCTAGTGCAG,9700 fluorescence intensity (a.u.)
6,CATGTGTTCCCTTTTTTGCTTTTAACTACATATTTGGAAACGGAGTCACCTAGTGCAG,8880 fluorescence intensity (a.u.)
7,TTCGTCAGTCTACTTTTCTCTTTGGGGTAATCACATAACTCGGAGTCACCTAGTGCAG,9270 fluorescence intensity (a.u.)
8,TGCTGTTCCAACTTCCGTTGCAGTTAATCCCTATATAAACCGGAGTCACCTAGTGCAG,8030 fluorescence intensity (a.u.)
9,ATGTTTGACCGTTCGTCTTATTCAAAAAATTTTTGTGAAACGGAGTCACCTAGTGCAG,8810 fluorescence intensity (a.u.)
10,AATGCCTGGCCCAGCCCAGCCACAACCGCCTTCAGGCCATCGGAGTCACCTAGTGCAG,8080 fluorescence intensity (a.u.)
11,TTATTGTGTTCTTACTGCTATTATTTTGGCCATTTTTTCTCGGAGTCACCTAGTGCAG,8660 fluorescence intensity (a.u.)
12,GATCCGCCGCCGCCGCCTCCTCCCCGGGCCTCTCTCTGATCGGAGTCACCTAGTGCAG,8090 fluorescence intensity (a.u.)
13,CATGAGGTGATTTGGTTGTGTTTCAGCTTTTTACCATATTCGGAGTCACCTAGTGCAG,10200 fluorescence intensity (a.u.)
14,ATATCAACCATGTCGTTCGTCCATCTTGTTCTGACCTGTGCGGAGTCACCTAGTGCAG,11800 fluorescence intensity (a.u.)
15,ACCACCACCTCGGCATCTCCTCGTCCTCGAGCCCAATACTCGGAGTCACCTAGTGCAG,9160 fluorescence intensity (a.u.)
16,CTGACGACGTGCTGGACGAGCTCGACTACTTCCGCATCCACGGAGTCACCTAGTGCAG,8820 fluorescence intensity (a.u.)
17,CTATTCCTGCCTCGCTCTCTCTCCGTCACGAAGTTTTCTGCGGAGTCACCTAGTGCAG,8550 fluorescence intensity (a.u.)
18,ATGTTCTTAGTGTTTGGGGCAGTGTACTTCTTGTCACTTCCGGAGTCACCTAGTGCAG,10000 fluorescence intensity (a.u.)
19,AGAATTCAGTATTTGCCCTGGTTCATTACAATGCTTATATCGGAGTCACCTAGTGCAG,8550 fluorescence intensity (a.u.)
20,ACCACCACTTCCGCCGGCGCCACTCGCTTTCGTGAAGAAACGGAGTCACCTAGTGCAG,8730 fluorescence intensity (a.u.)
21,CTCCAGTGGCCAATTAGGCTTGCGTCTCTTCCTCAGATTTCGGAGTCACCTAGTGCAG,8380 fluorescence intensity (a.u.)
